Data as given in PubChem BioAssay AID1159578 (Peter MacCallum Cancer Centre, 2015).

- Aim: 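Knock-downs that alter how fast lymphatic endothelial cells migrate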 (primary screen)
- System: human lymphatic endothelial cells
- Knock-down reagent: siRNA pool against human genes, 40 nM
- Timing: 48 h after transfection
- Read-out: 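High-content imaging of dye-stained cells in a scratch assay measures filled wound area and nuclei per well; duplicate means given as ratio to mock and robust z-score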
- Direction: migration robust z-score: higher = faster migration into the scratch; nuclei per well: higher = more cells in the well
- Hit rule: 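Pools averaging fewer than 3300 nuclei are never called; remaining pools count as changed when migration robust z lies outside -2 to 2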
- Calls: active = migration changed; inactive = no migration change, or too few cells
In all, the deposit lists about 18,000 reagents; this is an unselected part. Over the whole deposit, about 1,030 (5.7%) were called active. 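Inactive calls also include pools with fewer than 3300 nuclei, whose migration was not assessed.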 Raw values are not corrected between plates. Further read-outs or replicates are left out here.

TSPAN32 (tetraspanin 32) → migration robust z-score = -0.06; nuclei per well, duplicate mean = 6155; Call = inactive
TENT5A (terminal nucleotidyltransferase 5A) → migration robust z-score = 0.68; nuclei per well, duplicate mean = 5889; Call = inactive
CR2 (complement C3d receptor 2) → migration robust z-score = 0.36; nuclei per well, duplicate mean = 5400; Call = inactive
ITPKC (inositol-trisphosphate 3-kinase C) → migration robust z-score = -0.7; nuclei per well, duplicate mean = 6554; Call = inactive
ZDHHC11 (zDHHC palmitoyltransferase 11) → migration robust z-score = 0.04; nuclei per well, duplicate mean = 5378; Call = inactive
COPS7A (COP9 signalosome subunit 7A) → migration robust z-score = 1.93; nuclei per well, duplicate mean = 5915; Call = inactive
THAP6 (THAP domain containing 6) → migration robust z-score = -0.05; nuclei per well, duplicate mean = 6168; Call = inactive
TSGA10 (testis specific 10) → migration robust z-score = -0.62; nuclei per well, duplicate mean = 5202; Call = inactive
RCBTB2 (RCC1 and BTB domain containing protein 2) → migration robust z-score = -0.14; nuclei per well, duplicate mean = 6084; Call = inactive
CPNE8 (copine 8) → migration robust z-score = 0.44; nuclei per well, duplicate mean = 5799; Call = inactive
ADCY8 (adenylate cyclase 8) → migration robust z-score = 0.44; nuclei per well, duplicate mean = 5924; Call = inactive
HTR5A (5-hydroxytryptamine receptor 5A) → migration robust z-score = 1.04; nuclei per well, duplicate mean = 6956; Call = inactive
LEF1 (lymphoid enhancer binding factor 1) → migration robust z-score = -0.24; nuclei per well, duplicate mean = 5777; Call = inactive
FILIP1L (filamin A interacting protein 1 like) → migration robust z-score = -0.57; nuclei per well, duplicate mean = 5648; Call = inactive
CARM1 (coactivator associated arginine methyltransferase 1) → migration robust z-score = -0.68; nuclei per well, duplicate mean = 5083; Call = inactive
CDC37 (cell division cycle 37, HSP90 cochaperone) → migration robust z-score = 0.58; nuclei per well, duplicate mean = 5912; Call = inactive
OR4F5 (olfactory receptor family 4 subfamily F member 5) → migration robust z-score = 2.08; nuclei per well, duplicate mean = 6038; Call = active
KCND1 (potassium voltage-gated channel subfamily D member 1) → migration robust z-score = 0.62; nuclei per well, duplicate mean = 4298; Call = inactive
CNTFR (ciliary neurotrophic factor receptor) → migration robust z-score = -0.57; nuclei per well, duplicate mean = 5100; Call = inactive
TBCK (TBC1 domain containing kinase) → migration robust z-score = -1.35; nuclei per well, duplicate mean = 5780; Call = inactive
KIF3C (kinesin family member 3C) → migration robust z-score = 0.6; nuclei per well, duplicate mean = 5198; Call = inactive

Reformatted: 2 of the entries above.
gene,migration robust z-score,"nuclei per well, duplicate mean",Call
OR4F5 (olfactory receptor family 4 subfamily F member 5),2.08,6038,active
KCND1 (potassium voltage-gated channel subfamily D member 1),0.62,4298,inactive
